Reference: PubChem BioAssay AID1259279 (Sanger Institute, 2017)
Assay: 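Find kinases whose loss works with colorectal cancer drugs to kill cells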 (primary screen). Cell system: LS180 human colorectal cancer cells. Reagent: siRNA pool against human genes. Treatment: anchor drug BYL719 at 1 µM, cetuximab at 5 µg/ml or trametinib at 10 nM, or DMSO vehicle only. Measurement: 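Viability as a fraction of non-targeting control and as a replicate-averaged robust z-score, with separate synergy scores for BYL719, cetuximab and trametinib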. Reading the numbers: viability z-score, no drug: higher = more viable cells after knock-down; viability, no drug: higher = more viable cells. Units: viability, no drug in fraction. Active means: 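Essential (active) calls need a no-drug viability z-score lower than -3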. Meaning of the calls: active = essential (knock-down alone cuts viability); inactive = no change without drug.
In all, the deposit lists 794 reagents; shown is an unselected part. 11 of them (1.4%) were called active. 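Calls reflect knock-down alone in the vehicle arm, not drug synergy.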 Viability is capped at 1. Not all columns of the deposit are shown. No sequences are given here. Not stated in the record: the amount of reagent, the time to read-out.

How did the screen score CASP8 (caspase 8)?
viability z-score, no drug: 0.86; viability, no drug: 1; call: inactive

What is on record for BRSK2 (BR serine/threonine kinase 2)?
viability z-score, no drug: 0.273; viability, no drug: 0.936; call: inactive

For PRKDC (protein kinase, DNA-activated, catalytic subunit), what does the deposit list?
viability z-score, no drug: -0.842; viability, no drug: 0.814; call: inactive

For NUCKS1, what does the deposit list?
viability z-score, no drug: 0.57; viability, no drug: 0.968; call: inactive

What did the screen give for AXIN2 (axin 2)?
viability z-score, no drug: -0.251; viability, no drug: 0.879; call: inactive

With MECOM (MDS1 and EVI1 complex locus), what does the deposit list?
viability z-score, no drug: 0.86; viability, no drug: 1; call: inactive

What did the screen give for PRKAR2B?
viability z-score, no drug: -1.07; viability, no drug: 0.79; call: inactive

With GUCY2D (guanylate cyclase 2D, retinal), what was measured?
viability z-score, no drug: -5.92; viability, no drug: 0.261; call: active

In a second layout: 2 of the entries above
gene,"viability z-score, no drug","viability, no drug",call
AXIN2 (axin 2),-0.251,0.879,inactive
MECOM (MDS1 and EVI1 complex locus),0.86,1,inactive

The results go on.
With TAOK2 (TAO kinase 2), what was measured?
viability z-score, no drug: 0.86; viability, no drug: 1; call: inactive

For NEK6 (NIMA related kinase 6), what was measured?
viability z-score, no drug: 0.86; viability, no drug: 1; call: inactive

How did the screen score CDK19 (cyclin dependent kinase 19)?
viability z-score, no drug: -0.384; viability, no drug: 0.864; call: inactive

What is on record for NUP62 (nucleoporin 62)?
viability z-score, no drug: -0.665; viability, no drug: 0.834; call: inactive

Which result is listed for TCF7L2 (transcription factor 7 like 2)?
viability z-score, no drug: 0.86; viability, no drug: 1; call: inactive

For PFKFB3 (6-phosphofructo-2-kinase/fructose-2,6-biphosphatase 3), what does the deposit list?
viability z-score, no drug: 0.111; viability, no drug: 0.918; call: inactive

What did the screen give for TLK2 (tousled like kinase 2)?
viability z-score, no drug: 0.86; viability, no drug: 1; call: inactive

For MAP3K21 (mitogen-activated protein kinase kinase kinase 21), how do the results read?
viability z-score, no drug: -0.91; viability, no drug: 0.807; call: inactive

For WNK4 (WNK lysine deficient protein kinase 4), what does the deposit list?
viability z-score, no drug: -0.424; viability, no drug: 0.86; call: inactive

How did the screen score MAP4K3 (mitogen-activated protein kinase kinase kinase kinase 3)?
viability z-score, no drug: -0.596; viability, no drug: 0.841; call: inactive

What did the screen give for MAST1 (microtubule associated serine/threonine kinase 1)?
viability z-score, no drug: -0.0932; viability, no drug: 0.896; call: inactive
